Reference: PubChem BioAssay AID720504 (National Center for Advancing Translational Sciences (NCATS), 2013)
The campaign covered roughly 360,000 compounds. About 10,000 (2.8%) were called active. Inconclusive results, whose numbers are uncertain, are shown with a selection of clear calls. The call rests on the fitted dose curve; in most records, active means well fitted inhibition curve with a large enough effect; inconclusive means small, poorly fitted or top-dose-only effect; inactive means flat fitted curve, though single readings scatter. Where the call is inconclusive, the potency comes from a doubtful curve fit.

The chains behind the UniProt entries cited, without tags or fusion partners.
UniProt P53350, whole entry, looked up: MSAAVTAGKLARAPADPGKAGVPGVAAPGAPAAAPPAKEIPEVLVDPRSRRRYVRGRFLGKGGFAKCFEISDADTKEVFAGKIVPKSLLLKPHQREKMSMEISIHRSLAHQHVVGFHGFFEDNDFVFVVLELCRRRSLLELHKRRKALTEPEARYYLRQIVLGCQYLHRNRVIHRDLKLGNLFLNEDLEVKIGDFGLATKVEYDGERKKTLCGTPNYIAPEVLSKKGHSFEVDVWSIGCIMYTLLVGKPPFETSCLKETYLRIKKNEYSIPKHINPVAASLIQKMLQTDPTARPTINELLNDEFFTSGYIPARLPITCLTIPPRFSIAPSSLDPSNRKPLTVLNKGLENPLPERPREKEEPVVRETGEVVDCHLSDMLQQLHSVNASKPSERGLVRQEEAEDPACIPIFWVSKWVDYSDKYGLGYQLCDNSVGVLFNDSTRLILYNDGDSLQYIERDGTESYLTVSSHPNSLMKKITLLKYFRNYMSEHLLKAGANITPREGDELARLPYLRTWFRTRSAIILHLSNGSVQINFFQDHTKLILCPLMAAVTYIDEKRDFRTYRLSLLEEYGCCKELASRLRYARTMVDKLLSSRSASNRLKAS

target: Serine/threonine-protein kinase PLK1 (Homo sapiens) (UniProt P53350); assay: qHTS for Inhibitors of PLK1-PDB (polo-like kinase 1 - polo-box domain): Primary Screen; conditions: Plk1 PBD binding of FITC phosphopeptide, fluorescence polarization; further: nearly all actives have a fitted effect of over 65% in size; on max response, negative = inhibition: series mostly up to about 57 µM
On the % scale 0 is the no-effect control and ±100 the full control effect; potency means the concentration at half of the fitted maximal effect.

Structure (SMILES) | Potency | max response, negative = inhibition
COc1cc(C(=S)N2CCOCC2)ccc1O | active: 11.9 µM | 
C=CCn1c(O)c(/C=C2/C=c3ccccc3=N2)c(=O)[nH]c1=S | inconclusive: 0.336 µM [inhibitor, full curve] | 
COc1ccc(/C=C2\C(=O)NC(=S)N(C)C2=O)cc1C | active: 1.19 µM | 
O=C(/C=C/c1ccc2c(c1)OCO2)c1c(O)n(CCC2=CCCCC2)c(=O)[nH]c1=O | inconclusive: 26.7 µM [inhibitor, partial curve] | 
CCNC(=O)[C@H]1O[C@@H](n2cnc3c(N)ncnc32)[C@H](O)[C@@H]1O |  | inactive: 3.65%
O=C(NCCO)c1nsnc1NCCCl | inconclusive: 29.9 µM [inhibitor, single point] | 
COc1ccc(N2C(=O)NC(=O)/C(=C/c3cccc(OC(=O)c4cccs4)c3)C2=O)cc1Cl | active: 18.9 µM | 
O=S(=O)(Nc1ccc2[nH]ncc2c1)c1ccccc1Cl | inconclusive: 26.7 µM [inhibitor, partial curve] | 
CCOC(=O)[C@]12Cc3cc(C)ccc3[C@H]1N(CCC(=O)OC)C(=O)c1ccccc12 | active: 8.44 µM | 
O=c1c2ccccc2sn1-c1ccc(Cl)cc1 | active: 2.99 µM | 
O=C1NC(=O)C(Sc2ccccc2[N+](=O)[O-])C(=O)N1 | active: 2.99 µM | 
CC(NCc1ccc(Cl)c(Cl)c1)C(O)c1ccccc1 (configuration not stated) |  | inactive: -5.63%
COC(=O)Cn1cc(/C=C2\C(=O)NC(=O)N(c3ccccc3)C2=O)c2ccccc21 | inconclusive: 0.752 µM [inhibitor, full curve] | 
CCOC(=O)[C@]12Cc3cc(Cl)ccc3[C@H]1N(C1CCCCC1)C(=O)c1ccccc12 | active: 1.89 µM | 
S=c1[nH]nc(C2CC2)n1Cc1ccccc1 | inconclusive: 29.9 µM [inhibitor, single point] | 
CC/C(=C\C=C\[C@@H]1C=C[C@@H]2CCC[C@H]2[C@@H]1C(=O)c1ccc[nH]1)[C@@H]1O[C@@H]([C@@H](C)C(=O)O)CC[C@@H]1C | inconclusive: 26.7 µM [inhibitor, single point] | 
O=Cc1cn(Cc2cccc(F)c2)c2ccccc12 |  | inactive: -1.14%
Cc1cccc(N2C(=O)NC(=O)/C(=C\c3cnn(-c4ccccc4)c3)C2=O)c1 | inconclusive: 37.7 µM [inhibitor, single point] | 
CCOC(=O)/C(=N\Nc1ccccc1)N1CC1 | inconclusive: 23.8 µM [inhibitor, single point] | 
O=C1NC(=O)N(c2ccccc2)C(=O)/C1=C\c1ccc([N+](=O)[O-])s1 | active: 5.32 µM | 
Cc1noc(C)c1CSc1nc2cc(S(=O)(=O)N3CCOCC3)ccc2o1 | active: 21.2 µM | 
O=C(O)c1cccc2c1NC(C(=O)O)C1CC(Sc3ccccc3[N+](=O)[O-])C(Cl)C21 (configuration not stated) | active: 8.44 µM | 
O=C(NCc1ccco1)c1ccc(Cn2c(=O)c3ccccc3n(Cc3cccc(F)c3)c2=O)cc1 | active: 15 µM | 
COc1ccc(C=C2C(=O)NC(=S)NC2=O)cc1 | active: 9.47 µM | 

Quoted at random: 2 compounds from above
Structure (SMILES) | Potency | max response, negative = inhibition
O=Cc1cn(Cc2cccc(F)c2)c2ccccc12 |  | inactive: -1.14%
CCNC(=O)[C@H]1O[C@@H](n2cnc3c(N)ncnc32)[C@H](O)[C@@H]1O |  | inactive: 3.65%

Further structures:

Structure (SMILES) | Potency | max response, negative = inhibition
CCOC(=O)c1c(NC(NC(=O)CF)C(Cl)(Cl)Cl)sc2c1CCCC2 (configuration not stated) | active: 11.9 µM | 
CN(C)c1nc(OCCNC(=O)COc2ccc(Cl)cc2Cl)nc(N2CCCCC2)n1 |  | inactive: -1.25%
C=CCn1c(O)c(/C=C2/C=CC=N2)c(=O)[nH]c1=O |  | inconclusive: -30.6% [inhibitor]
Cc1cc2ccccn2c1C(C[N+](=O)[O-])c1c(F)cccc1Cl (configuration not stated) | inconclusive: 15 µM [inhibitor, partial curve] | 
CCSC1=NN1c1cc(C)nc(N)n1 | inconclusive: 18.9 µM [inhibitor, partial curve] | 
CN1C(=O)/C(=C\c2ccc(Br)s2)C(=O)NC1=S | active: 1.19 µM | 
CCN(CC)c1ccc(N=Cc2c(O)n(-c3ccc(Cl)cc3)c(=O)[nH]c2=O)cc1 | inconclusive: 16.8 µM [inhibitor, partial curve] | 
CCCCCN1C(=O)c2cc(OC)ccc2[C@@]2(C(=O)OCC)Cc3cc(Cl)ccc3[C@@H]12 | active: 4.74 µM | 
CCOc1ccc(C(C)=O)cc1Cc1c(O)[nH]c(=S)[nH]c1=O | active: 29.9 µM | 
O=C(N/N=C/c1c(O)n(C2CCCCC2)c(=S)[nH]c1=O)c1ccccc1 | inconclusive: 21.2 µM [inhibitor, single point] | 
CNC(=S)N(C)CCc1cc2c(c(OC)c1/C=C1/C(=O)NC(=O)N(C)C1=O)OCO2 | inconclusive: 26.7 µM [inhibitor, single point] | 
COc1ccc2c3c1OC1C(O)C=CC4C(C2)[N+](C)(C)CCC341 (configuration not stated) | inconclusive: 26.7 µM [inhibitor, single point] | 
Cn1c(O)c(/C=C2\C=c3ccccc3=NC2=O)c(=O)n(C)c1=O | inconclusive: 11.9 µM [inhibitor, partial curve] | 
Nc1ccc(Br)cc1 |  | inactive: -11.3%
O=C(Oc1ccc(Cl)cc1)N1CCOCC1 | active: 10.6 µM | 
CCN1C(=O)NC(=O)/C(=C\c2cn(CC(=O)N3CCCC3)c3ccccc23)C1=O | inconclusive: 4.23 µM [inhibitor, full curve] | 
Cc1ccsc1C(=O)C1CCCN(Cc2cc(C(C)C)n[nH]2)C1 (configuration not stated) | inconclusive: 21.2 µM [inhibitor, single point] | 
O=C1N[C@H](Cc2ccccc2)C(=O)N2[C@@H]3[C@H](C[C@@H]12)c1ccccc1N3OOSc1ccccc1 | inconclusive: 21.2 µM [inhibitor, partial curve] | 
CC1CC(OP(O)(=S)c2ccc(N(C)C)cc2NC(=O)c2cccs2)CC(C)(C)C1 (configuration not stated) | active: 5.97 µM | 
O=C(O)CCn1cc(C=C2C(=O)NC(=S)NC2=O)c(-c2cc3ccccc3oc2=O)n1 | active: 10.6 µM | 
Fc1ccc(C2=CCN(C(c3cccs3)c3nnnn3CCc3ccccc3)CC2)cc1 (configuration not stated) | inconclusive: 29.9 µM [inhibitor, single point] | 
O=C1NC(=S)N(c2ccccc2)C(=O)/C1=C/c1ccco1 | active: 2.99 µM | 
CNP(=O)(Oc1ccccc1)OC12CC3CC(CC(C3)C1)C2 (configuration not stated) |  | inactive: -20.8%

Complete entries from above.
CNP(=O)(Oc1ccccc1)OC12CC3CC(CC(C3)C1)C2 (configuration not stated) is listed with max response, negative = inhibition: inactive: -20.8%
Fc1ccc(C2=CCN(C(c3cccs3)c3nnnn3CCc3ccccc3)CC2)cc1 (configuration not stated) is listed with Potency: inconclusive: 29.9 µM [inhibitor, single point]
